From article PMC8559680
No constants are given. Whether binding was seen depends on the method and setting. For some of these results: Binding seen in cells or lysates may run through a third protein. Some results given as binding are weak or reduced against the parent protein; the word gives no strength. Tags and fused reporters may be left off the sequences shown.

B1: Fip1_(226) (Fip1 residues 1–226), co-expressed in Sf9 (domain or fragment, UniProt P45976 1-226)
chain: MSSSEDEDDKFLYGSDSELALPSSKRSRDDEADAGASSNPDIVKRQKFDSPVEETPATARDDRSDEDIYSDSSDDDSDSDLEVIISLGPDPTRLDAKLLDSYSTAATSSSKDVISVATDVSNTITKTSDERLITEGEANQGVTATTVKATESDGNVPKAMTGSIDLDKEGIFDSVGITTIDPEVLKEKPWRQPGANLSDYFNYGFNEFTWMEYLHRQEKLQQDYNP
B2: Fip1_(Δ1–60) (domain or fragment, UniProt P45976 61-327)
chain: DDRSDEDIYSDSSDDDSDSDLEVIISLGPDPTRLDAKLLDSYSTAATSSSKDVISVATDVSNTITKTSDERLITEGEANQGVTATTVKATESDGNVPKAMTGSIDLDKEGIFDSVGITTIDPEVLKEKPWRQPGANLSDYFNYGFNEFTWMEYLHRQEKLQQDYNPRRILMGLLSLQQQGKLNSANDTDSNLGNIIDNNNNVNNANMSNLNSNMGNSMSGTPNPPAPPMHPSFPPLPMFGSFPPFPMPGMMPPMNQQPNQNQNQNSK
B3: Pti1 (protein, UniProt P39927 1-425)
chain: MTDPRRRTGRHFLTPENLSSTLQITNLPPEWNQDIITSVVAGSGPVIDIKAKNDPRTGKLTGVLFDYLTSKDCKRAWEILNRIENFPVKIEQIIPPNYKDHLRETANKNSQKQVLQLNRDSYPFEAGLELPFEMVTEVPIPRRPPPPQAANNTNSVSNNTNIQFPDILSKASKHLPSFQDGSIIAPDKISQNLSKIPPLQLIEIISNLKILSNQENIQKSQLESFLDTNSDITISVTQALLEMGFIDYSVVTKVLKSQVGEAPSLLSSNNTSNSNTPVSVIRNNTPLHVPSNEVSNNPNNMPLNVAMPMPMSTPPFIPLPLQQQPFGFAPPGPFMPPAQGPSMGQPVLANQLGQVQQQNISSTEGPSNANKANDSGTINMAKLQLLPENQQDMIKQVLTLTPAQIQSLPSDQQLMVENFRKEYII
B4: Ysh1 (enzyme, UniProt Q06224 1-779)
chain: MERTNTTTFKFFSLGGSNEVGRSCHILQYKGKTVMLDAGIHPAYQGLASLPFYDEFDLSKVDILLISHFHLDHAASLPYVMQRTNFQGRVFMTHPTKAIYRWLLRDFVRVTSIGSSSSSMGTKDEGLFSDEDLVDSFDKIETVDYHSTVDVNGIKFTAFHAGHVLGAAMFQIEIAGLRVLFTGDYSREVDRHLNSAEVPPLSSNVLIVESTFGTATHEPRLNRERKLTQLIHSTVMRGGRVLLPVFALGRAQEIMLILDEYWSQHADELGGGQVPIFYASNLAKKCMSVFQTYVNMMNDDIRKKFRDSQTNPFIFKNISYLRNLEDFQDFGPSVMLASPGMLQSGLSRDLLERWCPEDKNLVLITGYSIEGTMAKFIMLEPDTIPSINNPEITIPRRCQVEEISFAAHVDFQENLEFIEKISAPNIILVHGEANPMGRLKSALLSNFASLKGTDNEVHVFNPRNCVEVDLEFQGVKVAKAVGNIVNEIYKEENVEIKEEIAAKIEPIKEENEDNLDSQAEKGLVDEEEHKDIVVSGILVSDDKNFELDFLSLSDLREHHPDLSTTILRERQSVRVNCKKELIYWHILQMFGEAEVLQDDDRVTNQEPKVKEESKDNLTNTGKLILQIMGDIKLTIVNTLAVVEWTQDLMNDTVADSIIAILMNVDSAPASVKLSSHSCDDHDHNNVQSNAQGKIDEVERVKQISRLFKEQFGDCFTLFLNKDEYASNKEETITGVVTIGKSTAKIDFNNMKILECNSNPLKGRVESLLNIGGNLVTPLC
B5: Pta1 (protein, UniProt Q01329 1-785)
chain: MSSAEMEQLLQAKTLAMHNNPTEMLPKVLETTASMYHNGNLSKLKLPLAKFFTQLVLDVVSMDSPIANTERPFIAAQYLPLLLAMAQSTADVLVYKNIVLIMCASYPLVLDLVAKTSNQEMFDQLCMLKKFVLSHWRTAYPLRATVDDETDVEQWLAQIDQNIGVKLATIKFISEVVLSQTKSPSGNEINSSTIPDNHPVLNKPALESEAKRLLDMLLNYLIEEQYMVSSVFIGIINSLSFVIKRRPQTTIRILSGLLRFNVDAKFPLEGKSDLNYKLSKRFVERAYKNFVQFGLKNQIITKSLSSGSGSSIYSKLTKISQTLHVIGEETKSKGILNFDPSKGNSKKTLSRQDKLKYISLWKRQLSALLSTLGVSTKTPTPVSAPATGSSTENMLDQLKILQKYTLNKASHQGNTFFNNSPKPISNTYSSVYSLMNSSNSNQDVTQLPNDILIKLSTEAILQMDSTKLITGLSIVASRYTDLMNTYINSVPSSSSSKRKSDDDDDGNDNEEVGNDGPTANSKKIKMETEPLAEEPEEPEDDDRMQKMLQEEESAQEISGDANKSTSAIKEIAPPFEPDSLTQDEKLKYLSKLTKKLFELSGRQDTTRAKSSSSSSILLDDDDSSSWLHVLIRLVTRGIEAQEASDLIREELLGFFIQDFEQRVSLIIEWLNEEWFFQTSLHQDPSNYKKWSLRVLESLGPFLENKHRRFFIRLMSELPSLQSDHLEALKPICLDPARSSLGFQTLKFLIMFRPPVQDTVRDLLHQLKQEDEGLHKQCDSLLDRLK
B6: Pfs2 (untagged, in CPF) (protein, UniProt P42841 1-465)
chain: MDGHNQNQYQNQNQIQQSQQPPLKKYVTQRRSVDVSSPYINLYYNRRHGLPNLVVEPETSYTIDIMPPNAYRGRDRVINLPSKFTHLSSNKVKHVIPAIQWTPEGRRLVVATYSGEFSLWNASSFTFETLMQAHDSAVTTMKYSHDSDWMISGDADGMIKIWQPNFSMVKEIDAAHTESIRDMAFSSNDSKFVTCSDDNILKIWNFSNGKQERVLSGHHWDVKSCDWHPEMGLIASASKDNLVKLWDPRSGNCISSILKFKHTVLKTRFQPTKGNLLMAISKDKSCRVFDIRYSMKELMCVRDETDYMTLEWHPINESMFTLACYDGSLKHFDLLQNLNEPILTIPYAHDKCITSLSYNPVGHIFATAAKDRTIRFWTRARPIDPNAYDDPTYNNKKINGWFFGINNDINAVREKSEFGAAPPPPATLEPHALPNMNGFINKKPRQEIPGIDSNIKSSTLPGLSI
B7: Mpe1 (protein, UniProt P35728 1-441)
chain: MSSTIFYRFKSQRNTSRILFDGTGLTVFDLKREIIQENKLGDGTDFQLKIYNPDTEEEYDDDAFVIPRSTSVIVKRSPAIKSFSVHSRLKGNVGAAALGNATRYVTGRPRVLQKRQHTATTTANVSGTTEEERIASMFATQENQWEQTQEEMSAATPVFFKSQTNKNSAQENEGPPPPGYMCYRCGGRDHWIKNCPTNSDPNFEGKRIRRTTGIPKKFLKSIEIDPETMTPEEMAQRKIMITDEGKFVVQVEDKQSWEDYQRKRENRQIDGDETIWRKGHFKDLPDDLKCPLTGGLLRQPVKTSKCCNIDFSKEALENALVESDFVCPNCETRDILLDSLVPDQDKEKEVETFLKKQEELHGSSKDGNQPETKKMKLMDPTGTAGLNNNTSLPTSVNNGGTPVPPVPLPFGIPPFPMFPMPFMPPTATITNPHQADASPKK
B8: Cft2 (protein, UniProt Q12102 1-859)
chain: MTYKYNCCDDGSGTTVGSVVRFDNVTLLIDPGWNPSKVSYEQCIKYWEKVIPEIDVIILSQPTIECLGAHSLLYYNFTSHFISRIQVYATLPVINLGRVSTIDSYASAGVIGPYDTNKLDLEDIEISFDHIVPLKYSQLVDLRSRYDGLTLLAYNAGVCPGGSIWCISTYSEKLVYAKRWNHTRDNILNAASILDATGKPLSTLMRPSAIITTLDRFGSSQPFKKRSKIFKDTLKKGLSSDGSVIIPVDMSGKFLDLFTQVHELLFESTKINAHTQVPVLILSYARGRTLTYAKSMLEWLSPSLLKTWENRNNTSPFEIGSRIKIIAPNELSKYPGSKICFVSEVGALINEVIIKVGNSEKTTLILTKPSFECASSLDKILEIVEQDERNWKTFPEDGKSFLCDNYISIDTIKEEPLSKEETEAFKVQLKEKKRDRNKKILLVKRESKKLANGNAIIDDTNGERAMRNQDILVENVNGVPPIDHIMGGDEDDDEEEENDNLLNLLKDNSEKSAAKKNTEVPVDIIIQPSAASKHKMFPFNPAKIKKDDYGTVVDFTMFLPDDSDNVNQNSRKRPLKDGAKTTSPVNEEDNKNEEEDGYNMSDPISKRSKHRASRYSGFSGTGEAENFDNLDYLKIDKTLSKRTISTVNVQLKCSVVILNLQSLVDQRSASIIWPSLKSRKIVLSAPKQIQNEEITAKLIKKNIEVVNMPLNKIVEFSTTIKTLDISIDSNLDNLLKWQRISDSYTVATVVGRLVKESLPQVNNHQKTASRSKLVLKPLHGSSRSHKTGALSIGDVRLAQLKKLLTEKNYIAEFKGEGTLVINEKVAVRKINDAETIIDGTPSELFDTVKKLVTDMLAKI
B9: Swd2 (protein, UniProt P36104 1-329)
chain: MTTVSINKPNLLKFKHVKSFQPQEKDCGPVTSLNFDDNGQFLLTSSSNDTMQLYSATNCKFLDTIASKKYGCHSAIFTHAQNECIYSSTMKNFDIKYLNLETNQYLRYFSGHGALVNDLKMNPVNDTFLSSSYDESVRLWDLKISKPQVIIPSLVPNCIAYDPSGLVFALGNPENFEIGLYNLKKIQEGPFLIIKINDATFSQWNKLEFSNNGKYLLVGSSIGKHLIFDAFTGQQLFELIGTRAFPMREFLDSGSACFTPDGEFVLGTDYDGRIAIWNHSDSISNKVLRPQGFIPCVSHETCPRSIAFNPKYSMFVTADETVDFYVYDE
B10: Yth1 (untagged) (protein, UniProt Q06102 1-208)
chain: MSLIHPDTAKYPFKFEPFLRQEYSFSLDPDRPICEFYNSREGPKSCPRGPLCPKKHVLPIFQNKIVCRHWLRGLCKKNDQCEYLHEYNLRKMPECVFFSKNGYCTQSPDCQYLHIDPASKIPKCENYEMGFCPLGSSCPRRHIKKVFCQRYMTGFCPLGKDECDMEHPQFIIPDEGSKLRIKRDDEINTRKMDEEKERRLNAIINGEV

Each binder was assayed against T1, Yth1 (untagged) (yeast) (UniProt Q06102) (assay: pull-down; StrepII (SII) tag on Pfs2 as bait; polymerase module subunits co-expressed in Sf9 cells; clarified lysate on Streptactin resin, 4°C; eluate analysed by SDS-PAGE).
T1 sequence: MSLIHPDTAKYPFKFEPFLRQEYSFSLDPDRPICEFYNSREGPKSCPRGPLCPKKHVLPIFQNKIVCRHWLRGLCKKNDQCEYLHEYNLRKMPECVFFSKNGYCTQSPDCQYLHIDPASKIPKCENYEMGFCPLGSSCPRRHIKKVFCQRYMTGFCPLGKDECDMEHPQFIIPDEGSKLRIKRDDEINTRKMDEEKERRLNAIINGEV

binding, binds:
B1
B2

The binders below were run against T2, Ref2-3C-SII (yeast) (UniProt P42073) (assay: co-purification (StrepTactin affinity, anion exchange, size exclusion); StrepII tag on Ref2 as bait; Sf9 cells co-infected with two baculoviruses (nuclease and polymerase modules; phosphatase module); purified complex analysed by SDS-PAGE).
T2 sequence: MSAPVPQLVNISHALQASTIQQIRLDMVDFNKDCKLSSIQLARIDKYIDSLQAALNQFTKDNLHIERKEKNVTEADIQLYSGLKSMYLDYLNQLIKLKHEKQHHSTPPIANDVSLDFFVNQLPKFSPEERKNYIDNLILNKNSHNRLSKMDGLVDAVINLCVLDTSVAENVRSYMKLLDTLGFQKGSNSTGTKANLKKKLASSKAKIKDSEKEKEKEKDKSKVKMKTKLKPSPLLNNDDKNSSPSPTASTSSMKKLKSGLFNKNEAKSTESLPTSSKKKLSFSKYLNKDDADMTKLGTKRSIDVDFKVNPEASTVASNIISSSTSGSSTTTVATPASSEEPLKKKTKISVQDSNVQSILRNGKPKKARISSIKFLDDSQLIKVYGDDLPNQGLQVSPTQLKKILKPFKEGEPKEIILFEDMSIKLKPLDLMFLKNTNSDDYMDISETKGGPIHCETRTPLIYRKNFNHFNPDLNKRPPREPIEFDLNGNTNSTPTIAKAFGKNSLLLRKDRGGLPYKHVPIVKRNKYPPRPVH

binding, binds:
B3
B4
B5
B6
B7
B8
B9
B10
